Laboratory results from paper PMC6994238.

Amino acid sequences for entries named in this document (tags omitted). A change or cut given only in a name is not applied to a line headed by its entry.
UniProt Q22ZH2: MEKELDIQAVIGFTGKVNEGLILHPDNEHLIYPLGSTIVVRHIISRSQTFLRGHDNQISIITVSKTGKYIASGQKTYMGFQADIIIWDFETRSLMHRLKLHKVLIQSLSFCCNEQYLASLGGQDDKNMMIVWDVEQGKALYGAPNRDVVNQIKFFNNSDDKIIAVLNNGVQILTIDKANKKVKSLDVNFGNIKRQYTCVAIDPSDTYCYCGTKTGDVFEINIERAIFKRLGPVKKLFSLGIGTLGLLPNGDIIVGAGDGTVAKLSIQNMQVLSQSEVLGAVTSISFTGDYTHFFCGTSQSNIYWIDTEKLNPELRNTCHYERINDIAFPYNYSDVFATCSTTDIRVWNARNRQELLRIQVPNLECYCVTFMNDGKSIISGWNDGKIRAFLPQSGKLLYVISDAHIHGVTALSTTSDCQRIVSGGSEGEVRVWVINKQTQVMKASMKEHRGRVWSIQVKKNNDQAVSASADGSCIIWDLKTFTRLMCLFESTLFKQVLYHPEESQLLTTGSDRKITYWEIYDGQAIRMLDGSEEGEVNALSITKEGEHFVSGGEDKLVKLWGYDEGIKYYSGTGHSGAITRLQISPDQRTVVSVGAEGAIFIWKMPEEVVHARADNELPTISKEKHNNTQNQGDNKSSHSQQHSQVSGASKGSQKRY
UniProt B1B601: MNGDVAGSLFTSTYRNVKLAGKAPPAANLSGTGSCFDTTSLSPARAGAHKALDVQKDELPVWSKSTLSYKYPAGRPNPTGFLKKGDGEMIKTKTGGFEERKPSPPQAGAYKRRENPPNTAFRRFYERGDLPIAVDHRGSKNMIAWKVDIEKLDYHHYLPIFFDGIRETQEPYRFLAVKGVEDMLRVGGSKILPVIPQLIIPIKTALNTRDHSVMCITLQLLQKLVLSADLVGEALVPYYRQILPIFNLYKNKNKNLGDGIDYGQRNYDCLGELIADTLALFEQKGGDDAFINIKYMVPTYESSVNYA
UniProt P04690: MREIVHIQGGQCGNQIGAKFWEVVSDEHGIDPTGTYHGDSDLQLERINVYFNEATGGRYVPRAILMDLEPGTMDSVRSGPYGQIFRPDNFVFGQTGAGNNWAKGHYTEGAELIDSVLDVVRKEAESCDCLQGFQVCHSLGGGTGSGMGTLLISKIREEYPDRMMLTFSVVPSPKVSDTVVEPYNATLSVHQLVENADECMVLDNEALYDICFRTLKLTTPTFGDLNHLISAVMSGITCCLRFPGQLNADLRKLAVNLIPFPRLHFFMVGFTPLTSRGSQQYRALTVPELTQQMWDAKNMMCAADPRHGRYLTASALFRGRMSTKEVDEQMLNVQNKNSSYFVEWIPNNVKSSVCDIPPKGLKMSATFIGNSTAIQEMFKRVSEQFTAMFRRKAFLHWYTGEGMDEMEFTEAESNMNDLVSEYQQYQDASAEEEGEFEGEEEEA
UniProt P41351: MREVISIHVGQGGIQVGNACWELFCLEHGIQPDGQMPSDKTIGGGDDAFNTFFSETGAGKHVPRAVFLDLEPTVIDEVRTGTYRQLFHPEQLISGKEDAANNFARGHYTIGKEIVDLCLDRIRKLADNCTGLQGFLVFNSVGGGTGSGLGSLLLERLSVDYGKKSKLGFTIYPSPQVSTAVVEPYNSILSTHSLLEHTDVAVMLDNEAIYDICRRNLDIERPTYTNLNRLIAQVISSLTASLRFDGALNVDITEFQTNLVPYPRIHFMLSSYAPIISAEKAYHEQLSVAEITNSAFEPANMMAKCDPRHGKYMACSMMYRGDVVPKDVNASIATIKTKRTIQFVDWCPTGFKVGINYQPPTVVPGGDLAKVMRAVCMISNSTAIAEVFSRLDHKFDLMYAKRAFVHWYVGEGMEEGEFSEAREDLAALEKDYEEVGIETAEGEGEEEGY
UniProt W7XCX2: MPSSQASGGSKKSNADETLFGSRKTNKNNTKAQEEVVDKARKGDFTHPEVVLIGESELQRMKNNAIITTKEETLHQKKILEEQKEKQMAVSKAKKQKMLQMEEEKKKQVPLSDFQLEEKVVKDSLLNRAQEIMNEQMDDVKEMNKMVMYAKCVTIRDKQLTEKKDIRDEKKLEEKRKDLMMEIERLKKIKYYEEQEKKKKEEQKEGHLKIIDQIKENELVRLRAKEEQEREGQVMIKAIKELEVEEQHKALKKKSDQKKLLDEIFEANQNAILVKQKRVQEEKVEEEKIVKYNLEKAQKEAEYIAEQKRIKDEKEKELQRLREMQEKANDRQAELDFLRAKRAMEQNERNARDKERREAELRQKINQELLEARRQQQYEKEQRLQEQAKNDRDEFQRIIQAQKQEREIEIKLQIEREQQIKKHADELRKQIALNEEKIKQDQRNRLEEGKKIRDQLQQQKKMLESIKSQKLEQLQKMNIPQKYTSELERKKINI
UniProt A0A2K3D260: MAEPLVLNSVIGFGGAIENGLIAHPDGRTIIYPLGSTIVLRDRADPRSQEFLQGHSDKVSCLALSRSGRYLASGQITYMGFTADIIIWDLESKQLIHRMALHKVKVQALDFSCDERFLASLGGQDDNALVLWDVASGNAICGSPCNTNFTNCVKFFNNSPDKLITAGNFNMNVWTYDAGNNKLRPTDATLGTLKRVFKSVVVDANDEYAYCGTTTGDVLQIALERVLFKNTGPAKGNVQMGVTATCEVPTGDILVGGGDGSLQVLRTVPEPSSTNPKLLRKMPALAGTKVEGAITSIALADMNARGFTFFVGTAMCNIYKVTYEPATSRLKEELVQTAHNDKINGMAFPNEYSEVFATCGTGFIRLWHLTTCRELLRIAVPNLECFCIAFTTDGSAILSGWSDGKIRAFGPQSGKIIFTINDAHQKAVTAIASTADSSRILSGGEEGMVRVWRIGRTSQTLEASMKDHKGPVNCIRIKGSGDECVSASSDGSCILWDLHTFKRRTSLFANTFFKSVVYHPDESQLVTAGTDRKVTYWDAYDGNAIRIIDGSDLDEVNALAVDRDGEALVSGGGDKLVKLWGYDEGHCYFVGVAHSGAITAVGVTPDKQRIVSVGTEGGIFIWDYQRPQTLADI
UniProt I7M279: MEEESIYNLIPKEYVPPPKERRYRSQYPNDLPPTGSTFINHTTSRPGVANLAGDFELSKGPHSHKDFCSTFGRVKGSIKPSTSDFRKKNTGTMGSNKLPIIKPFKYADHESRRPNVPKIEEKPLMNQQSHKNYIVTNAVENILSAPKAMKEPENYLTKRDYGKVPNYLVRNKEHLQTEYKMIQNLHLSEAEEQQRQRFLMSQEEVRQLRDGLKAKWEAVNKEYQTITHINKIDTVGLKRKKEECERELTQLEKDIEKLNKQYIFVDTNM

Legend:
[1] = molecular target: FAP52, Tetrahymena thermophila (Tetrahymena thermophila) (UniProt Q22ZH2); experiment: cryo-EM structure; salt-treated doublet microtubules isolated from Tetrahymena; 48 nm and 16 nm repeat maps; lower resolution in the inner junction region; no Tetrahymena atomic model
[2] = molecular target: PArkin Co-Regulated Gene (PACRG), Chlamydomonas reinhardtii (Chlamydomonas reinhardtii) (UniProt B1B601); experiment: cryo-EM structure; taxol-stabilised, 0.6 M NaCl-washed doublet microtubules isolated from Chlamydomonas flagella; 16 nm repeat map, focused refinement of the inner junction to 3.6 Å; atomic model PDB 6VE7
[3] = molecular target: β-tubulin, Chlamydomonas reinhardtii (Chlamydomonas reinhardtii) (UniProt P04690); experiment: as above
[4] = molecular target: α-tubulin, Tetrahymena thermophila (Tetrahymena thermophila) (UniProt P41351); experiment: cryo-EM structure; salt-treated doublet microtubules isolated from Tetrahymena; 48 nm and 16 nm repeat maps; lower resolution in the inner junction region; no Tetrahymena atomic model

## FAP45, Tetrahymena thermophila (from UniProt W7XCX2)
[1]
  binding: binds

## FAP52, Chlamydomonas reinhardtii (from UniProt A0A2K3D260)
[2]
  binding: binds
[3]
  binding: binds

## FAP52, Tetrahymena thermophila (from UniProt Q22ZH2)
[4]
  binding: binds

## Tetrahymena thermophila homolog of FAP106 (Tether loop) (from UniProt I7M279)
[4]
  binding: binds

Results are given in words; binding and its absence hold for the method and conditions named. A result given as binding can be weak or reduced; the word gives no strength.
